Reference: the RepoRT retention time repository

Assay: HILIC, Waters ACQUITY UPLC BEH Amide, 100 × 2.1 mm, 1.7 µm; A: water + 0.125% formic acid + 10 mM ammonium formate; B: 5% water + 95% acetonitrile + 0.125% formic acid + 10 mM ammonium formate; gradient (min/%B) 0/100 2/100 7.7/70 9.5/40 10.25/30 12.75/100 17/100
Conditions: stereoisomer not certain

LC retention time | SMILES
0.97 min | Cc1c(C(=O)NN2CCCCC2)nn(-c2ccc(Cl)cc2Cl)c1-c1ccc(I)cc1 [AM-251]
2.92 min | Cc1cccc(CCN2CCC(C(=O)c3ccc(NS(C)(=O)=O)cc3)CC2)n1 [E-4031]
